Source: patent US7897566 (dated 2011)

Assays:
[1] = general procedure: Fmoc solid-phase peptide synthesis; Rink Amide MBHA resin (Novabiochem), 0.66 mmol/g; HBTU/HOBT, DIEA; conditions: whole synthesis; for final HPLC purity: analytical HPLC
peptide synthesis = conditions: whole synthesis
[2] = scale of the general procedure 0.1 mmol

((3-(2,4-dihydroxyphenyl)-propionyl)^7)hGLP-1(7-36)NH2
final HPLC purity [1, 2]: 98.6%

((3-(2-hydroxyphenyl)-propionyl)^7)hGLP-1(7-36)NH2
final HPLC purity [1, 2]: 98.0%

((3-(3-hydroxyphenyl)-propionyl)^7)hGLP-1(7-36)NH2
final HPLC purity [1, 2]: 99.0%

((3-(4-aminophenyl)-propionyl)^7)hGLP-1(7-36)NH2
final HPLC purity [1, 2]: 99.0%

((3-chloro-4-hydroxyphenyl-acetyl)^7)hGLP-1(7-36)NH2
final HPLC purity [1, 2]: 97.2%

((3-fluoro-4-hydroxyphenyl-acetyl)^7)hGLP-1(7-36)NH2
final HPLC purity [1, 2]: 95.1%
isolated mass ([1]; scale 0.1 mmol): 5.6 mg
isolated yield ([1]; scale 0.1 mmol): 1.7%

((4-aminophenyl-acetyl)^7)hGLP-1(7-36)NH2
final HPLC purity [1, 2]: 99.0%

(Aib^8,35,37, Arg^26,34, Ava^38)hGLP-1(7-38)NH2
final HPLC purity [1, 2]: 96.7%

(Aib^8,35,37, Arg^26,34, D-His^38)hGLP-1(7-38)NH2
final HPLC purity [1, 2]: 99.9%

(Aib^8,35,37, Arg^26,34, Gaba^38)hGLP-1(7-38)NH2
final HPLC purity (peptide synthesis): 99.9%

(Aib^8,35,37, Arg^26,34, Gly^38)hGLP-1(7-38)NH2
final HPLC purity [1, 2]: 97.4%

(Aib^8,35,37, Arg^26,34, His^38)hGLP-1(7-38)NH2
final HPLC purity [1, 2]: 97.0%

(Aib^8,35,37, Arg^26,34, Phe^31, Asn^38)hGLP-1(7-38)-NH2
final HPLC purity [1, 2]: 99.0%

(Aib^8,35,37, Arg^26,34, Phe^31, Ava^38)hGLP-1(7-38)NH2
final HPLC purity [1, 2]: 99.1%

(Aib^8,35,37, Arg^26,34, Phe^31, D-His^38)hGLP-1(7-38)NH2
final HPLC purity [1, 2]: 98.6%

(Aib^8,35,37, Arg^26,34, Phe^31, Gaba^38)hGLP-1(7-38)NH2
final HPLC purity (peptide synthesis): 99.9%

(Aib^8,35,37, Arg^26,34, Phe^31, Gly^38)hGLP-1(7-38)NH2
final HPLC purity [1, 2]: 99.9%

(Aib^8,35,37, Arg^26,34, Phe^31, His^38)hGLP-1(7-38)NH2
final HPLC purity [1, 2]: 99.9%

(Aib^8,35,37, Arg^26,34, Phe^31, Ser^38)hGLP-1(7-38)NH2
final HPLC purity [1, 2]: 97.5%

(Aib^8,35,37, Arg^26,34, Phe^31, β-Ala^38)hGLP-1(7-38)NH2
final HPLC purity [1, 2]: 99.9%

(Aib^8,35,37, Arg^34, Phe^31, D-His^38)hGLP-1(7-38)NH2
final HPLC purity [1, 2]: 99.9%

(Aib^8,35,37, Arg^34, Phe^31, Gaba^38)hGLP-1(7-38)NH2
final HPLC purity (peptide synthesis): 96.8%

(Aib^8,35,37, Arg^34, Phe^31, Gly^38)hGLP-1(7-38)NH2
final HPLC purity [1, 2]: 99.9%

(Aib^8,35,37, Arg^34, Phe^31, His^38)hGLP-1(7-38)NH2
final HPLC purity [1, 2]: 99.9%

(Aib^8,35,37, Arg^34, Phe^31, β-Ala^38)hGLP-1(7-38)NH2
final HPLC purity [1, 2]: 99.9%

(Aib^8,35,37, Gaba^38)hGLP-1(7-38)NH2
final HPLC purity (peptide synthesis): 97.7%

(Aib^8,35,37, Gly^38)hGLP-1(7-38)NH2
final HPLC purity [1, 2]: 95.8%

(Aib^8,35,37, β-Ala^38)hGLP-1(7-38)NH2
final HPLC purity [1, 2]: 99.9%

(Aib^8,35, Arg^26,34, Phe^31, Pro^37, Ser^38,39)hGLP-1(7-39)-NH2
final HPLC purity [1, 2]: 95.0%
isolated yield [1, 2]: 7.9%

(Aib^8,35, Arg^26,34, Phe^31, β-Ala^37,38)hGLP-1(7-38)NH2
final HPLC purity [1, 2]: 99.9%

(Aib^8,35, Arg^26,34, Phe^31, β-Ala^37, D-His^38)hGLP-1(7-38)NH2
final HPLC purity [1, 2]: 99.9%

(Aib^8,35, Arg^26,34, Phe^31, β-Ala^37, His^38)hGLP-1(7-38)NH2
final HPLC purity [1, 2]: 99.9%

(Aib^8,35, Arg^26,34, β-Ala^37, His^38)hGLP-1(7-38)NH2
final HPLC purity [1, 2]: 99.3%
